# In patent publication US7816374B2, “Method of treating neutrophil-related diseases with topical anesthetics” (Mayo Foundation for Medical Education and Research, priority 2000, dated 2010):
# How the values were obtained:
# neutrophils = assay: Neutrophil extracellular superoxide production (cytochrome c reduction plate assay); assay type: cell-based, human; conditions: inferred from inability to alter PMA stimulated superoxide production
# Procedure: Neutrophils were purified from heparinized venous blood of normal volunteers by sedimentation through a cushion of 1.085 gm/ml Percoll made in PIPES buffer, pH 7.4, supplemented with 50 mM NaCl, 5 mM KCl, 25 mM NaOH, and 5.4 mM glucose) and centrifuged at 2,000 rmp in a Beckman CS-6KR centrifuge for 30 minutes with no brake. Plasma, mononuclear cells, and Percoll layers were removed and the erythrocytes were lysed by osmotic shock.
# The superoxide production was measured using cytochrome c reduction in a plate assay at a concentration of 50,000 neutrophils/well and was done in duplicate.
# Neutrophils were isolated in a Percoll gradient to remove PBMC.
# The extracellular superoxide assay (Cytochrome C method) was performed as follows: 1) The wells of a 96-well plate were blocked with 50 ul of 1% HSA for at least 2 hours at 37° C. […] The cells were resuspended in CytoC mix to 0.5×10^6 cells/mL and kept on ice until ready for use. […] 7) The 96 well plate was placed in a ThermoMax plate reader and the OD550 was read at 37° C. The plate was read at time 0 and then every 10 minutes for 1 hour, then every 30 minutes for 3 hours. 8) The concentration of superoxide released was calculated by using the following formula to calculate the nmol of Cytochrome C reduced: 19.1*[OD550(time x)−OD550(time 0)]/0.05=nmol Cytochrome C reduced per 1×10^6 cells=nmol superoxide released per 1×10^6 cells.
# [1] = system: neutrophil-mediated injury; conditions: animal models; cited from earlier work
# [2] = human serum; cited from earlier work
compound,measurement,setting,value
"CCN(CC)CC(=O)Nc1c(C)cccc1C [lidocaine, (2-diethylamino)-N-(2,6-dimethylphenyl)acetamide]",toxicity to the neutrophil,neutrophils,not toxic to the neutrophil
same,"neutrophil tissue damage induced by hydrochloric acid, reperfusion injury and endotoxin",[1],inhibits neutrophil tissue damage
same,serum concentration above which lidocaine toxicity occurs,[2],5000 to 6000 ng/mL
